Results are given in words; binding and its absence hold for the method and conditions named. In cells and extracts the contact can be indirect. Some results given as binding are weak or reduced against the parent protein; the word gives no strength.
Biological target: indoleamine 2,3-dioxygenase (human (endogenous in human dMDSCs)) (UniProt P14902)
Assay: co-IP; RIPA lysate of purified human dMDSCs, uninfected or infected with T. gondii (24 h); anti-IDO antibody (5 µg/ml) or IgG as negative control, overnight at 4 °C, protein A/G-agarose beads; western blot for IDO and SOCS3

The chains behind the UniProt entries cited, without tags or fusion partners.
UniProt P14902: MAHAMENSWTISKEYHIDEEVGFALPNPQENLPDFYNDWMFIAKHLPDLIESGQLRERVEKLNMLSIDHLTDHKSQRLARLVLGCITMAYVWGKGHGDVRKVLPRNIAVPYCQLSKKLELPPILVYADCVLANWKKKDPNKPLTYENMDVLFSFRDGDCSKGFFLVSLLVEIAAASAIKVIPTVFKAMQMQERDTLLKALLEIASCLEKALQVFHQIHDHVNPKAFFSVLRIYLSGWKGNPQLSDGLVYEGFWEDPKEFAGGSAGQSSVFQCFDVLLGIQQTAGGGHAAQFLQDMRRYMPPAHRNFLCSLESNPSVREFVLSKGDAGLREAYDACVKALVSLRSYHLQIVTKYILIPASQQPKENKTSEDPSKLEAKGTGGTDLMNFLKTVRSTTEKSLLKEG
UniProt O14543: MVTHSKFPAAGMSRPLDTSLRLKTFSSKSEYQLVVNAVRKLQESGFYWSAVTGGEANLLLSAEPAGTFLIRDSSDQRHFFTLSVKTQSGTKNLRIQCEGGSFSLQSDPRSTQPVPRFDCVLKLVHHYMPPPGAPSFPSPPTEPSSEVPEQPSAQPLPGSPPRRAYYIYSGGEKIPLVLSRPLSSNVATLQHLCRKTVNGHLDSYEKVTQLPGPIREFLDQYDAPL

- binding: binds
Substance: suppressors of cytokine signaling 3 (from UniProt O14543 1-225)

Reference: paper PMC11143278
